Some results were stated once for a whole list of compounds, not compound by compound. At least one compound was matched to its structure with a doubt left.
Test system: PC3 cells
Test: Cell metabolism inhibition assay (Cell titre Blue) with fatty acids
Assay type: cell-based
Method: A cell metabolism inhibition assay was performed to determine the effect of different fatty acids on cellular metabolic rate. The fatty acids tested were α-Linolenic acid, omega 3 fatty acid (ALA), Arachidonic acid, omega 6 fatty acid (AA), 9Z, 11E conjugated Linoleic acid, omega 7 fatty acid (CLA), Docosahexaenoic acid, omega 3 fatty acid (DHA), Eicosapentaenoic acid, omega 3 fatty acid (EPA), Oleic acid, omega 9 fatty acid (OA), Ricinoleic acid, omega 9 hydroxylated fatty acid (RA).
PC3 cells are from a cell line derived from a hormone refractory prostate cancer and are known to overexpress HSD10. PC3 cells were seeded at a density of 4,000 cells per well in a 96 well plate, and incubated at 37° C., 5% CO2 for 48 hours in standard growth media (F12K nutrient media, 7% Fetal Calf Serum, 2 mM L-Glutamine, 45 mg/L ascorbic acid). […] After incubation in the drug treatment for 72 hours at 37° C., 5% CO2, 50 μL Cell titre Blue Assay Reagent was added to each well and the plate return to incubation at 37° C., 5% CO2, for a further 24 hours, at which time the absorbance at 620 nm was recorded. The reduction of absorbance at 620 nm represents a higher metabolic rate, and the data below has been normalized such that 100% represents cells that have been grown in the presence of undrugged media, and 0% represents wells containing no cells.

Structure (SMILES) | metabolic inhibition (80-100 μM range) | metabolic inhibition (60-100 μM range)
CCCCC/C=C\C/C=C\C/C=C\C/C=C\CCCC(=O)O [AA, Arachidonic acid] | 35-40% | 
CCCCCC/C=C/C=C\CCCCCCCC(=O)O [CLA, 9Z, 11E conjugated Linoleic acid] |  | 35-40%
